Experimental data as given in article doi:10.1101/2023.05.30.542845.
These are yes or no findings as the source states them, for the method shown. Binding seen in cells or lysates may run through a third protein. Binding can be weak; no strength is given.

Molecular target: Myeloperoxidase (human)
Experiment: co-IP

binding: binds
B1: ILF3 (protein, UniProt Q12906 1-894)
chain: MRPMRIFVNDDRHVMAKHSSVYPTQEELEAVQNMVSHTERALKAVSDWIDEQEKGSSEQAESDNMDVPPEDDSKEGAGEQKTEHMTRTLRGVMRVGLVAKGLLLKGDLDLELVLLCKEKPTTALLDKVADNLAIQLAAVTEDKYEILQSVDDAAIVIKNTKEPPLSLTIHLTSPVVREEMEKVLAGETLSVNDPPDVLDRQKCLAALASLRHAKWFQARANGLKSCVIVIRVLRDLCTRVPTWGPLRGWPLELLCEKSIGTANRPMGAGEALRRVLECLASGIVMPDGSGIYDPCEKEATDAIGHLDRQQREDITQSAQHALRLAAFGQLHKVLGMDPLPSKMPKKPKNENPVDYTVQIPPSTTYAITPMKRPMEEDGEEKSPSKKKKKIQKKEEKAEPPQAMNALMRLNQLKPGLQYKLVSQTGPVHAPIFTMSVEVDGNSFEASGPSKKTAKLHVAVKVLQDMGLPTGAEGRDSSKGEDSAEETEAKPAVVAPAPVVEAVSTPSAAFPSDATAEQGPILTKHGKNPVMELNEKRRGLKYELISETGGSHDKRFVMEVEVDGQKFQGAGSNKKVAKAYAALAALEKLFPDTPLALDANKKKRAPVPVRGGPKFAAKPHNPGFGMGGPMHNEVPPPPNLRGRGRGGSIRGRGRGRGFGGANHGGYMNAGAGYGSYGYGGNSATAGYSQFYSNGGHSGNASGGGGGGGGGSSGYGSYYQGDNYNSPVPPKHAGKKQPHGGQQKPSYGSGYQSHQGQQQSYNQSPYSNYGPPQGKQKGYNHGQGSYSYSNSYNSPGGGGGSDYNYESKFNYSGSGGRSGGNSYGSGGASYNPGSHGGYGGGSGGGSSYQGKQGGYSQSNYNSPGSGQNYSGPPSSYQSSQGGYGRNADHSMNYQYR
